Experimental data from patent publication US10450311B2, “Pesticidally active heterocyclic derivatives with sulphur containing substituents” (Syngenta Participations AG, priority 2014, dated 2019).
Some of these results come from one statement about several compounds together.

What was measured:
Type in all cases: in vivo
[1] = system: Bemisia tabaci (Cotton White Fly); assay: Activity against Bemisia tabaci, sprayed cotton leaf discs; conditions: application rate of 200 ppm; adult white flies on cotton leaf discs; 6 days after incubation
Experimental: Example B1: Activity Against Bemisia tabaci (Cotton White Fly)
Cotton leaf discs were placed on agar in 24-well microtiter plates and sprayed with aqueous test solutions prepared from 10′000 ppm DMSO stock solutions. After drying the leaf discs were infested with adult white flies. The samples were checked for mortality 6 days after incubation. […] A35, A36 and A47. A1. A2, A3, A8, A10, A14 and A12.

[2] = system: Diabrotica balteata (Corn Root Worm); assay: Activity against Diabrotica balteata, sprayed maize sprouts; conditions: application rate of 200 ppm; larvae on maize sprouts; 4 days after infestation
Experimental: Example B2: Activity Against Diabrotica balteata (Corn Root Worm)
Maize sprouts, placed on an agar layer in 24-well microtiter plates were treated with aqueous test solutions prepared from 10′000 ppm DMSO stock solutions by spraying. After drying, the plates were infested with […] (6 to 10 per well). The samples were assessed for mortality 4 days after infestation.

[3] = system: Euschistus heros (Neotropical Brown Stink Bug); assay: Activity against Euschistus heros, sprayed soybean leaf; conditions: application rate of 200 ppm; N-2 nymphs on soybean leaf; 5 days after infestation
Experimental: Example B3: Activity Against Euschistus heros (Neotropical Brown Stink Bug)
Soybean leaf on agar in 24-well microtiter plates were sprayed with aqueous test solutions prepared from 10′000 ppm DMSO stock solutions. After drying the leaf were infested with N-2 nymphs. The samples were assessed for mortality 5 days after infestation.

[4] = system: Frankliniella occidentalis (Western Flower Thrips); assay: Activity against Frankliniella occidentalis, sprayed sunflower leaf discs; conditions: application rate of 200 ppm; population of mixed ages on sunflower leaf discs; 7 days after infestation
Experimental: Example B4: Activity Against Frankliniella occidentalis (Western Flower Thrips)
(§1) Sunflower leaf discs were placed on agar in 24-well microtiter plates and sprayed with aqueous test solutions prepared from 10′000 DMSO stock solutions. After drying the leaf discs were infested with a Frankliniella population of mixed ages. The samples were assessed for mortality 7 days after infestation.

[5] = system: Myzus persicae (Green Peach Aphid); assay: Activity against Myzus persicae, sprayed sunflower leaf discs; conditions: application rate of 200 ppm; aphid population of mixed ages on sunflower leaf discs; 6 days after infestation
Experimental: Example B5: Activity Against Myzus persicae (Green Peach Aphid)
Sunflower leaf discs were placed on agar in a 24-well microtiter plate and sprayed with aqueous test solutions prepared from 10′000 ppm DMSO stock solutions. After drying, the leaf discs were infested with an aphid population of mixed ages. The samples were assessed for mortality 6 days after infestation.

[6] = system: Myzus persicae (Green Peach Aphid); assay: Activity against Myzus persicae, roots of infested pea seedlings in test solution; conditions: test rate of 24 ppm, 6 days
Experimental: Example B6: Activity Against Myzus persicae (Green Peach Aphid)
Roots of pea seedlings infested with an aphid population of mixed ages were placed directly in the aqueous test solutions prepared from 10′000 DMSO stock solutions. The samples were assessed for mortality 6 days after placing seedlings in test solutions.

[7] = system: Myzus persicae (Green Peach Aphid); assay: Activity against Myzus persicae, sucrose solution under Parafilm; conditions: test rate of 12 ppm, mixed with sucrose solution, 5 days after infestation
Description: Example B7: Activity Against Myzus persicae (Green Peach Aphid)
Test compounds from 10′000 ppm DMSO stock solutions were applied by pipette into 24-well microtiter plates and mixed with sucrose solution. The plates were closed with a stretched Parafilm. A plastic stencil with 24 holes was placed onto the plate and infested pea seedlings were placed directly on the Parafilm. The infested plate was closed with a gel blotting paper and another plastic stencil and then turned upside down. The samples were assessed for mortality 5 days after infestation. […] A30 and A32.

[8] = system: Spodoptera littoralis (Egyptian Cotton Leaf Worm); assay: Activity against Spodoptera littoralis, sprayed cotton leaf discs; conditions: application rate of 200 ppm; L1 larvae on cotton leaf discs; 3 days after infestation
[9] = system: Thrips tabaci (Onion Thrips); assay: Activity against Thrips tabaci, feeding/contact activity; conditions: application rate of 200 ppm; thrips population of mixed ages on sunflower leaf discs; 6 days after infestation
Experimental: Example B13: Activity Against Thrips tabaci (Onion Thrips) Feeding/Contact Activity
as §1, with “10′000 ppm” for “10′000”, “thrips” for “Frankliniella”, “6” for “7”

[10] = system: Plutella xylostella (Diamond Back Moth); assay: Activity against Plutella xylostella, treated artificial diet; conditions: application rate of 200 ppm; L2 larvae on artificial diet; 5 days after infestation
Experimental: Example B8: Activity Against Plutella xylostella (Diamond Back Moth)
24-well microtiter plates with artificial diet were treated with aqueous test solutions prepared from 10′000 ppm DMSO stock solutions by pipetting. After drying, the plates were infested with L2 larvae (10 to 15 per well). The samples were assessed for mortality and growth inhibition in comparison to untreated samples 5 days after infestation.

[11] = system: Tetranychus urticae (Two-Spotted Spider Mite); assay: Activity against Tetranychus urticae, feeding/contact activity; conditions: application rate of 200 ppm; mixed population (mobile stages) on bean leaf discs; 8 days after infestation
Experimental: Example B12: Activity Against Tetranychus urticae (Two-Spotted Spider Mite): Feeding/Contact Activity
Bean leaf discs on agar in 24-well microtiter plates were sprayed with aqueous test solutions prepared from 10′000 ppm DMSO stock solutions. After drying the leaf discs were infested with a mite population of mixed ages. The samples were assessed for mortality on mixed population (mobile stages) 8 days after infestation.

[12] = system: Aedes aegypti (Yellow Fever Mosquito); conditions: test rate of 5 ppm; L2 larvae in 96-well plates; incubation period of 2 days
Experimental: Example B14: Activity Against Aedes aegypti (Yellow Fever Mosquito)
10 to 15 Aedes larvae (L2) together with a nutrition mixture were placed in 96-well microtiter plates. Test compounds were pipetted into the wells. After an incubation period of 2 days insects were assessed for mortality and growth inhibition.

CCS(=O)(=O)c1cc(C(F)(F)F)cnc1-c1nc2cc(C(F)(F)F)n(CSC)c(=O)c2n1C [Compound A12]
at least 80%: mortality [1] | mortality [2] | mortality [3] | mortality [4] | mortality [5] | mortality [6] | mortality [7] | control (at least one of mortality, anti-feedant effect, growth inhibition) [8] | mortality [9]

CCS(=O)(=O)c1cc(-c2ccnc(F)c2)cnc1-c1nc2cc(C(F)(F)F)n(C)c(=O)c2n1C [Compound A48]
at least 80%: mortality [2] | mortality [3] | mortality [5] | effect in at least one of the two categories (mortality or growth inhibition) [10] | control (at least one of mortality, anti-feedant effect, growth inhibition) [8] | mortality [11] | effect in at least one of the two categories (mortality or growth inhibition) [12]
